Measurements taken from patent publication US20180094062A1 (Hoffmann-La Roche, published 2018).
Results are given in words; binding and its absence hold for the method and conditions named. Some binding calls cover weakened binding; strength is not graded here.

Amino acid sequences for entries named in this document (tags omitted). A change or cut given only in a name is not applied to a line headed by its entry.
UniProt P21860: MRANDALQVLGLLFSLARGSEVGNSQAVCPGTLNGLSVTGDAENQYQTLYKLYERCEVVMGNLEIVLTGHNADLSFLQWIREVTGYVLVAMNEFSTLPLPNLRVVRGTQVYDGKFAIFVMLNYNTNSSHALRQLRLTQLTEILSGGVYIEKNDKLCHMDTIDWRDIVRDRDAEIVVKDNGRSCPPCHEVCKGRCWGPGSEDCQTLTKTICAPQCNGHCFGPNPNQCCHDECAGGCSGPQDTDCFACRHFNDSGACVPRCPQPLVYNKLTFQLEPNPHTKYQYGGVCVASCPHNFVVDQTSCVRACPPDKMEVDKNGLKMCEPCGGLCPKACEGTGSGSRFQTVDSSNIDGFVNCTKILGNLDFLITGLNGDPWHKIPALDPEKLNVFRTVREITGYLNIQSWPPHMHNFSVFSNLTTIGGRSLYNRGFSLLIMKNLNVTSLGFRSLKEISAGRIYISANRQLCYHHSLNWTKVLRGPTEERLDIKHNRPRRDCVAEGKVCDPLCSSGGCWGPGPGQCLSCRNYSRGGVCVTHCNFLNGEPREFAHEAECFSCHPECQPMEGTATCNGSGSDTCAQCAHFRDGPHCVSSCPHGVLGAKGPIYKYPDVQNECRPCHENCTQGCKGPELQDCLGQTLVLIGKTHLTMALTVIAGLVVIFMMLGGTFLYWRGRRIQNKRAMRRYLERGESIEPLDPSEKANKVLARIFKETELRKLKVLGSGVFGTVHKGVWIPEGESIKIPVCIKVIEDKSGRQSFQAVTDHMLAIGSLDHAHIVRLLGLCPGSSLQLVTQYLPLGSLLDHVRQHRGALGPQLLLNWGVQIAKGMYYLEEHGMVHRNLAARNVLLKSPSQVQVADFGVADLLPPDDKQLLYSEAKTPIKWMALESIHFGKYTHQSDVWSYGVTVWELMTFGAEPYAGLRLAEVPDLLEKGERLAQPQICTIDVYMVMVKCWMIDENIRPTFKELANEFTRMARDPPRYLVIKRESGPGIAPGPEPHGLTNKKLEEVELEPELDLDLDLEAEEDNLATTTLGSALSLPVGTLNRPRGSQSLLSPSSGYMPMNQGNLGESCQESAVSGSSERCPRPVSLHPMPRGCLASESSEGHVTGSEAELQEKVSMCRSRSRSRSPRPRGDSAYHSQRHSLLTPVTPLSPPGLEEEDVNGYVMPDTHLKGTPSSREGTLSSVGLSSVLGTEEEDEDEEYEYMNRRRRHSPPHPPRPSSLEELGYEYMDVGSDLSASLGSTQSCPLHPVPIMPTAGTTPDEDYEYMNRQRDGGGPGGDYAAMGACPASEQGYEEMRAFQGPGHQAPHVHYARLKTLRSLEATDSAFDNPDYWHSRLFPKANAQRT

What was measured:
[1] = target: HER3 ECD-HRG complex (Heregulin-activated Her-3 ECD) (human) (UniProt P21860); assay: SPR
[2] = target: HER3 ECD-HRG complex (Heregulin-activated Her-3 ECD) (human) (UniProt P21860); assay: SPR functional assays
[3] = target: HER3 ECD-HRG complex (Heregulin-activated Her-3 ECD) (human) (UniProt P21860); assay: SPR sensorgram overlay, 100 nM
[4] = target: T1, HER3 ECD peptide hairpin (β-hairpin of HER3), overlapping immobilized 15-mer peptides (human); assay: CelluSpots array of overlapping 15-mer peptides
T1 sequence (peptide): PQPLVYNKLTFQLEPNPHT

[5] = target: T2, HER4 ECD peptide hairpin (β-hairpin of HER4), overlapping immobilized 15-mer peptides (human); assay: CelluSpots array of overlapping 15-mer peptides
T2 sequence (peptide): PQTFVYNPTTFQLEHNFNA

[6] = target: human recombinant HER3 Extracellular Domain (HER3 ECD) (human) (UniProt P21860); assay: SPR epitope binning, M-05-74 captured, Her-3 ECD 1.5 µM, 37 C
[7] = target: human recombinant HER3 Extracellular Domain (HER3 ECD) (human) (UniProt P21860); assay: SPR (Biacore) overlay, 100 nM Her-3 ECD without Heregulin on M-05-74
[8] = target: HER3 ECD-HRG complex (Heregulin-activated Her-3 ECD) (human) (UniProt P21860); assay: SPR (Biacore) overlay, 100 nM Heregulin/Her-3 ECD complex on M-05-74
[9] = target: HER3 ECD-HRG complex (Heregulin-activated Her-3 ECD) (human) (UniProt P21860); assay: SPR (Biacore) overlay, 90 nM Heregulin*Her-3 ECD complex on M-05-74
[10] = target: T1, HER3 ECD peptide hairpin (β-hairpin of HER3), overlapping immobilized 15-mer peptides (human); assay: CelluSpots array of overlapping 15-mer peptides of the HER family hairpins, antibody at 1 µg/mL, chemiluminescence (paragraph 389 to paragraph 391)
[11] = target: T2, HER4 ECD peptide hairpin (β-hairpin of HER4), overlapping immobilized 15-mer peptides (human); assay: as above

Measured: binding

B1: anti-HER3/HER4 antibody M-05-74 (antibody, V domains shown)
VH: QVQLQQSGAELAKPGASVKMSCKTSGYTLTDYWIHWVKQRPGQGLEWIGYINPYTGYTESNQKFKDKATLTADKSSNTAYIQLSSLTSEDSAVYYCARPYYYGDYWGQGTTLTVSS
VL: QIVLTQSPAIMSASPGERVTITCSASSSVSYMHWFQQKPGTSPKLLIYSTSNLASGVPARFSGSGSGTSYSLTISRMEAEDAATYYCQQRSSYPFTFGSGTKLEIK
notes: also called M-074; M-5-74
binds: all assays above
